Reference: paper PMC8010718, “Direct coupling of oligomerization and oligomerization-driven endocytosis of the dopamine transporter to its conformational mechanics and activity” (The Journal of Biological Chemistry, 2021)
No constants are given. Whether binding was seen depends on the method and setting. For part of these data: Binding seen in cells or lysates may run through a third protein. Some results given as binding are weak or reduced against the parent protein; the word gives no strength.

How the values were obtained:
[1] = target: TM4-9 mutant of YFP-HA-DAT (I248F, V249T, L458F, L459G) (human) (UniProt Q01959); assay: SDS-resistant oligomers on SDS-PAGE and Western blot; PAE cells stably expressing the tagged transporter, incubated with vehicle (DMSO), AIM-100 or ALs (20 μM, 2 h, 37 °C), with or without cocaine; lysis in TGH with 1% deoxycholate; Laemmli buffer 5 min 95 °C; 7.5% SDS-PAGE; GFP antibody
[2] = target: CFP-DAT and YFP-DAT (two differently tagged copies of DAT, co-expressed) (UniProt Q01959); assay: FRET or BRET; sensitized FRET microscopy from CFP to YFP in living PAE cells co-expressing CFP-DAT and YFP-DAT; vehicle, AL3, AL4 or AL8 (20 μM, 90 min, 37 °C); imaging at room temperature
[3] = target: YFP-HA-ΔN-DAT (DAT lacking the N-terminal residues 1-65) (human) (UniProt Q01959); assay: SDS-resistant oligomers on SDS-PAGE and Western blot; PAE cells stably expressing the tagged transporter, incubated with vehicle (DMSO), AIM-100 or ALs (20 μM, 2 h, 37 °C), with or without cocaine; lysis in TGH with 1% deoxycholate; Laemmli buffer 5 min 95 °C; 7.5% SDS-PAGE; GFP antibody

TM4-9 mutant of YFP-HA-DAT (I248F, V249T, L458F, L459G) (from UniProt Q01959 1-620)
binding [1]: binds

CFP-DAT and YFP-DAT (two differently tagged copies of DAT, co-expressed) (from UniProt Q01959 1-620)
binding [2]: binds

YFP-HA-ΔN-DAT (DAT lacking the N-terminal residues 1-65) (from UniProt Q01959 66-620) (domain or fragment)
binding [3]: binds
